This passage reports binding results from publication PMC10002482, “BMPER Improves Vascular Remodeling and the Contractile Vascular SMC Phenotype” (International Journal of Molecular Sciences, 2023).

By UniProt entry, the sequences of proteins in these tests, tags left out. Where a name states a change or a piece, a line headed by the entry shows the natural chain unless it says otherwise. Residues count along the entry.
UniProt Q8N8U9: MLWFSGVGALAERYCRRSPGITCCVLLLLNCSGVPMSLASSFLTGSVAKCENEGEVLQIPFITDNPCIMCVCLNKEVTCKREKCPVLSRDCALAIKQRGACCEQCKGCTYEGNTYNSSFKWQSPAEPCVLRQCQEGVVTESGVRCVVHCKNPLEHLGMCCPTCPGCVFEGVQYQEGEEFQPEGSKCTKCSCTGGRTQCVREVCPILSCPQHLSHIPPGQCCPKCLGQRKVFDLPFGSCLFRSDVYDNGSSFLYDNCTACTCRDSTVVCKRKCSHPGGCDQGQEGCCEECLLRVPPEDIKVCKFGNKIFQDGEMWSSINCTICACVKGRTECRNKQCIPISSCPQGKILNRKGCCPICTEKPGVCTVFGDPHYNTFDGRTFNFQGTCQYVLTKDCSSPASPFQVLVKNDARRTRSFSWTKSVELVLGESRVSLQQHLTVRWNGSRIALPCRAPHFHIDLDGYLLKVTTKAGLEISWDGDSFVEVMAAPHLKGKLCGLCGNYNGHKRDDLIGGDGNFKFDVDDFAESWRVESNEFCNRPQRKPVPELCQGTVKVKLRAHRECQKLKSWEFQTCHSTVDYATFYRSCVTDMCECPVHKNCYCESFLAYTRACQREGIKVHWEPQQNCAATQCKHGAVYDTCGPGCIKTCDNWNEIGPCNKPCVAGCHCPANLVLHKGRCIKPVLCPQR
UniProt Q8CJ69, residues 40-685: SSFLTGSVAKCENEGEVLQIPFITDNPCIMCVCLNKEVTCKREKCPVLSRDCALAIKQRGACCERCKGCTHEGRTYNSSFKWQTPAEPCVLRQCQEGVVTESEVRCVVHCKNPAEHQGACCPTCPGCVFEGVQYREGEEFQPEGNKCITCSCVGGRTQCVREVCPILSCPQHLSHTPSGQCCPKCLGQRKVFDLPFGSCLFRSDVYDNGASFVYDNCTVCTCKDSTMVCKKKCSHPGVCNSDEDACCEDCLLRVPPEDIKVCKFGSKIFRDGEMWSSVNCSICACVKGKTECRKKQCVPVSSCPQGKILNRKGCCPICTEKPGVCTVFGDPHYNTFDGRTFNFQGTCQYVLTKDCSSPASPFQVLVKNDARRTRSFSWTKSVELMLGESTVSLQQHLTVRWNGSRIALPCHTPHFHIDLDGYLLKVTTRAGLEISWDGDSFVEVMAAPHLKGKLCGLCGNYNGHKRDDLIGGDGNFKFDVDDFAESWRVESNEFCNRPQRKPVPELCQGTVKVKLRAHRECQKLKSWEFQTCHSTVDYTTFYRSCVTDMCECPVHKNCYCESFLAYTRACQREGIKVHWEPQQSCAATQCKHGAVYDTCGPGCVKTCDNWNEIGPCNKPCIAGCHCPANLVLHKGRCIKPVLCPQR

In experiment [1] the target is T1, IGFBP4, endogenous in human vSMCs (human (endogenous in primary vSMCs)) (UniProt P22692).
T1 sequence: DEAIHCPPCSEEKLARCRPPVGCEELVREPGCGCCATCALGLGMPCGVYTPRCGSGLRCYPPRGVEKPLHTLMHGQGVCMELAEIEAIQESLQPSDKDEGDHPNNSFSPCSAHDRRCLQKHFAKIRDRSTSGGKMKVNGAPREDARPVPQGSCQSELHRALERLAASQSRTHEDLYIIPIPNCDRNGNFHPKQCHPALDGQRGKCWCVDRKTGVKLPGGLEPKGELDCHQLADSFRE
As to the kind of experiment: proximity ligation; Duolink in situ PLA on acetone-fixed human vSMCs with BMPER and IGFBP4 antibodies; cells in 0.4% FBS/EBM or treated with IGF1 (10 ng/mL) for 20 min; control IgGs.

Experiment [2] addresses T2, IGFBP4, yeast two-hybrid fusion (UniProt P22692).
T2 sequence: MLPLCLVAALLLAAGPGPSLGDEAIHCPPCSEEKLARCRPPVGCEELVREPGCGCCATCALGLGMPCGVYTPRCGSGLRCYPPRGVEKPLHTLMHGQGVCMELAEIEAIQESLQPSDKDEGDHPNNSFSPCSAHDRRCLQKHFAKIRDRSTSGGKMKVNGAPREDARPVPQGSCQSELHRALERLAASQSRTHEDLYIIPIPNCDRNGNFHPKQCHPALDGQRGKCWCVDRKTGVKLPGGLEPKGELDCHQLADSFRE
As to the kind of experiment: two-hybrid; yeast two-hybrid screening "performed in the past"; no details given.

The target of experiment [3] is T3, Igfbp4, endogenous in mouse carotid artery (mouse (endogenous in carotid artery)) (UniProt P47879).
T3 sequence: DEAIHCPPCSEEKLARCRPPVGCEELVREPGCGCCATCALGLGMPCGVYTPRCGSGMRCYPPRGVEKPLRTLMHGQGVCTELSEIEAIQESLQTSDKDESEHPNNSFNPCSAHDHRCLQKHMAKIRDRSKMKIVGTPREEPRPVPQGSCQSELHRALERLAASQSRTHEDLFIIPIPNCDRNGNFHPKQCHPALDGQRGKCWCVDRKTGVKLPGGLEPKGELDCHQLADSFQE
The experiment in a line: proximity ligation; Duolink in situ PLA on acetone-fixed mouse carotid tissue sections (RCCA injured and LCCA control, 14 days after carotid ligation).

For experiment [4], the target named is T4, BMP-4 (bone morphogenetic protein 4) (UniProt P12644).
T4 sequence: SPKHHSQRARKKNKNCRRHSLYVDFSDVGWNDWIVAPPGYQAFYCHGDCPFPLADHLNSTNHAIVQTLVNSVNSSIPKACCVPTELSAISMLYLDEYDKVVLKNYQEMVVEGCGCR
As to the kind of experiment: SPR; competition: BMPER at constant 0.75 nM preincubated for 30 min with 0-6 nM IGFBP-4, injected over immobilised BMP-4 (430 RU, CM5) in HBS-EP; both purified. Background: Surface plasmon resonance follows binding to a sensor surface in real time, without labels.

Experiment [5] deals with T4, BMP-4 (bone morphogenetic protein 4). As to the kind of experiment: SPR; BIAcore 2000; BMP-4 immobilised at 430 RU on CM5 by amine coupling; 0-320 nM BMPER or IGFBP-4 injected in HBS-EP; 1:1 model with mass transfer; apparent KD = kd/ka; both purified.

Results are given in words; binding and its absence hold for the method and conditions named. For some assays here: Binding seen in cells or lysates may run through a third protein. Some binding calls cover weakened binding; strength is not graded here. For some assays here: Sequences can lack the tags named with a protein.

For “BMPER, endogenous in human vSMCs (from UniProt Q8N8U9 40-685)”, the binding entry in experiment [1] is given as “binds”.

For “BMPER, yeast two-hybrid fusion (from UniProt Q8N8U9 1-685)”, the binding entry in experiment [2] is “binds”.

With “Bmper, endogenous in mouse carotid artery (from UniProt Q8CJ69 40-685)”, in experiment [3], the binding entry was “binds”.

For the molecule “recombinant BMPER (BMP endothelial cell precursor-derived regulator) (from UniProt Q8N8U9 40-685)”, the binding entry in experiment [4] is recorded as “binds”.

B1: recombinant IGFBP-4 (insulin-like growth factor-binding protein 4) (natural protein, UniProt P22692 22-258, looked up)
chain: T1 sequence
notes: IGFBP4, recombinant protein immobilised or injected in SPR; whether this holds for the SPR proteins is surmised; source: recombinant
For the molecule B1, the binding result in experiment [5] is recorded as “no binding (tested: 0–320 nM)”.
